No constants are given. Whether binding was seen depends on the method and setting. Binding calls can cover weak binding; strength is not graded here.
Target: recombinant FGFR1 Ig modules 2, 3 (expressed in Drosophila S2 cells) (Homo sapiens (Human))
Test: SPR (BIAcoreX), FGFR Ig modules 2, 3 amine-coupled to CM5 chip, peptide injected, blank flow cell subtracted

Binder | binding
SIDRVEPYSSTAQVQFD [ABL peptide (…, SEQ ID NO: 2), A strand-loop-B strand of NCAM F3, 1 module] | binds
KAEWKSLGEEAWHSK [CDL peptide (…, SEQ ID NO: 1), C strand-loop-D strand of NCAM F3, 1 module] | binds

Source: patent US20090074774A1, “Fgfr binding peptides” (priority 2004, published 2009)
